Values quoted from earlier work in article PMC7717712, “The effects of cardiac drugs on human erythrocyte carbonic anhydrase I and II isozymes” (Journal of Enzyme Inhibition and Medicinal Chemistry, 2020).

Key:
ATPase = settings: read-out: IC50, ATPase activity; cited from earlier work
protein kinase C = settings: read-out: IC50, protein kinase C; cited from earlier work

CC(C)NCC(O)COc1cccc2ccccc12 (centres unmarked) [Propranolol]
IC50 (ATPase): 4.4 mM
IC50 (protein kinase C): ~150 µM
